Measurements taken from the supplement of paper PMC12823440, “Inhibitors supercharge kinase turnover through native proteolytic circuits” (Nature, 2025).
Structures can show the parent of a compound that is named as a salt. Some of the results follow. The calls rarely recur for the same compound in another form.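 Kinases, fused to nanoluciferase, were expressed in K562 cells; luminescence was measured every 4 h from 2 to 18 h as percent of control (DMSO = 100%, positive control = 0%). A time point is decreased if signal falls significantly (2 sigma). Hits were called by the authors by a rule that is not shown; the count of time points alone does not decide it.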

Amino acid sequences for entries named in this document (tags omitted). A change or cut given only in a name is not applied to a line headed by its entry.
UniProt O15530: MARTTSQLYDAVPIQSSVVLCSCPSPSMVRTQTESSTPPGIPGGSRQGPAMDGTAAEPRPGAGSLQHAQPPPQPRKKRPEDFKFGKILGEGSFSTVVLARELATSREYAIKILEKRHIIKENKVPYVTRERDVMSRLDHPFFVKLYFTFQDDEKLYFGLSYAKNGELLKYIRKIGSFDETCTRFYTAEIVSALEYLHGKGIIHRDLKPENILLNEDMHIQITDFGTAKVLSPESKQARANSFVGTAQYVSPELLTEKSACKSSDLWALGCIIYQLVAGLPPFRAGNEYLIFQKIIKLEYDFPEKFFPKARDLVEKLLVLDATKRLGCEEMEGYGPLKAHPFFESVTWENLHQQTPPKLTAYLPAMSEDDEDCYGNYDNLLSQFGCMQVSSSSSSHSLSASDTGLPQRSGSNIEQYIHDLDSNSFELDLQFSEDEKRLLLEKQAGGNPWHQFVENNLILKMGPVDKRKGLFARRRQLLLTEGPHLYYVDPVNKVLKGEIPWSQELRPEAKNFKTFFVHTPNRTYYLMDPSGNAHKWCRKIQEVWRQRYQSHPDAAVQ
UniProt P42356, whole entry, looked up: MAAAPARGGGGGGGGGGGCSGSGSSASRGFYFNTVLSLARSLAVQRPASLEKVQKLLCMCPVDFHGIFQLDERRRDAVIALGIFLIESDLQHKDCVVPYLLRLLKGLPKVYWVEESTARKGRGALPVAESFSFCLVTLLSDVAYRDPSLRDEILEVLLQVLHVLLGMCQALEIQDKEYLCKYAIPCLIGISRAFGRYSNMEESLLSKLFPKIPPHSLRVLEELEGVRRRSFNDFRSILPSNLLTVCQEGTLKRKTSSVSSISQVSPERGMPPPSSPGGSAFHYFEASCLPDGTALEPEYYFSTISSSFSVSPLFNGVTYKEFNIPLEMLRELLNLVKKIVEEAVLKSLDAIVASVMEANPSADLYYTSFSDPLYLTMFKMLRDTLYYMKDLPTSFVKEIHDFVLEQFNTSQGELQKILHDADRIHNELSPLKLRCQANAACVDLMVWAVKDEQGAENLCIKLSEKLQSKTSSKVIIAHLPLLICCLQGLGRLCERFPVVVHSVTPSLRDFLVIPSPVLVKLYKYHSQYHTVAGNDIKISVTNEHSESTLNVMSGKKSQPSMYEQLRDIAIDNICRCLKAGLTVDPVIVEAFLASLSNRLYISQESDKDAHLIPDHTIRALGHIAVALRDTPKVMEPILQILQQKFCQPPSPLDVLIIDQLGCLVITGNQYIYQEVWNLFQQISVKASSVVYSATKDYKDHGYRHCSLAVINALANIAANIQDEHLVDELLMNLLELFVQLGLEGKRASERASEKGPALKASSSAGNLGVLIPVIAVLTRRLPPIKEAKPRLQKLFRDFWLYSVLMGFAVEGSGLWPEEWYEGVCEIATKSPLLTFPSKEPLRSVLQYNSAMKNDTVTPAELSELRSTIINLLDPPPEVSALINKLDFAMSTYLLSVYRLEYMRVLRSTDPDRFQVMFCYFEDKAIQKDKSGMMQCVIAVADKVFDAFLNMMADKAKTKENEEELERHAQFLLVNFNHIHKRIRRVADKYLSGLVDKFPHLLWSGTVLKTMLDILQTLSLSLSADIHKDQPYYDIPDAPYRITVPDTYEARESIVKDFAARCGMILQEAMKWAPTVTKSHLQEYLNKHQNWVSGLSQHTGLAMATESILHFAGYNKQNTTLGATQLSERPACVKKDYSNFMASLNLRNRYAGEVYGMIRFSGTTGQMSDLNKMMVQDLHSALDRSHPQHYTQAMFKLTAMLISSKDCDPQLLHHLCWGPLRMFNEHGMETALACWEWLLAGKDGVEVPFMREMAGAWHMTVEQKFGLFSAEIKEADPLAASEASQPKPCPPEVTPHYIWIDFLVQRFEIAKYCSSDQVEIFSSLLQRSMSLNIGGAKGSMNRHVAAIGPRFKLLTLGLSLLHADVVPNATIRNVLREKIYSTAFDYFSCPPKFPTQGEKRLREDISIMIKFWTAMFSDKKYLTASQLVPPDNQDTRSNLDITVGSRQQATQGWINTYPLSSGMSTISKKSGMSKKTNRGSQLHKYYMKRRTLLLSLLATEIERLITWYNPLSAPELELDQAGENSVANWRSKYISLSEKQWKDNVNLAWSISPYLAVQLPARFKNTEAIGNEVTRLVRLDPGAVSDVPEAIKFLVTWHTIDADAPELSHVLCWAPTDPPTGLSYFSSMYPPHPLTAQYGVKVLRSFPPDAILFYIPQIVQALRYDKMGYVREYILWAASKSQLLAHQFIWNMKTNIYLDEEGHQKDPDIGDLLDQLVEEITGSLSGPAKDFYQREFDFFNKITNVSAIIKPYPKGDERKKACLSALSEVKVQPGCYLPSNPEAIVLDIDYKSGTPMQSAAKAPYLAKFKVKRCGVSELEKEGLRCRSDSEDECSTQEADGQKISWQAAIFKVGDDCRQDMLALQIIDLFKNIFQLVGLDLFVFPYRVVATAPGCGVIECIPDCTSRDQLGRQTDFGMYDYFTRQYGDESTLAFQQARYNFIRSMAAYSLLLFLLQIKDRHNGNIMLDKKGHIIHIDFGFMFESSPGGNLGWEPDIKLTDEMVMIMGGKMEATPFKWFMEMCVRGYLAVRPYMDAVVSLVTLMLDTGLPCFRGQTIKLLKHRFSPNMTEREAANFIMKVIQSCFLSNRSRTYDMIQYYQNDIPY
UniProt Q9UBF8: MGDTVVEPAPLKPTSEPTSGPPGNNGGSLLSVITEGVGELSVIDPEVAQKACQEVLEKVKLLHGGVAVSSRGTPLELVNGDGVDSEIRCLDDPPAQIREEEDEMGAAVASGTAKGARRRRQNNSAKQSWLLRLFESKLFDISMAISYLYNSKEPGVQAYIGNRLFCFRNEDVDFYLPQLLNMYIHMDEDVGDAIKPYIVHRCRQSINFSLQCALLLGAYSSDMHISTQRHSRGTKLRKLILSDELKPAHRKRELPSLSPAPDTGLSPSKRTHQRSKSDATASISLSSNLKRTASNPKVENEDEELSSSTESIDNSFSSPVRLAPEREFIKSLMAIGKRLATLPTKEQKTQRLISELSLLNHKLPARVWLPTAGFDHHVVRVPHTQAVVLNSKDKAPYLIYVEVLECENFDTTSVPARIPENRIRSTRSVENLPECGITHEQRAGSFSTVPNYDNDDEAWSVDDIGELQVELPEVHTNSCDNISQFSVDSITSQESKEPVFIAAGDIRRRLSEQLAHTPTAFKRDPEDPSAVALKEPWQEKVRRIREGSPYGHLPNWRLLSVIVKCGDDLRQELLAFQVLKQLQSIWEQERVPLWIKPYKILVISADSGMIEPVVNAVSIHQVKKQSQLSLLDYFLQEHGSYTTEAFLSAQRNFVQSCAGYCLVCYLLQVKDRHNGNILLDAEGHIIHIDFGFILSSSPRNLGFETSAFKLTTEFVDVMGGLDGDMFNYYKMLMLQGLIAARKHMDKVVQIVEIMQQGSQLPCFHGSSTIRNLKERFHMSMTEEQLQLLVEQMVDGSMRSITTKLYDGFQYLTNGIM
UniProt P53350, whole entry: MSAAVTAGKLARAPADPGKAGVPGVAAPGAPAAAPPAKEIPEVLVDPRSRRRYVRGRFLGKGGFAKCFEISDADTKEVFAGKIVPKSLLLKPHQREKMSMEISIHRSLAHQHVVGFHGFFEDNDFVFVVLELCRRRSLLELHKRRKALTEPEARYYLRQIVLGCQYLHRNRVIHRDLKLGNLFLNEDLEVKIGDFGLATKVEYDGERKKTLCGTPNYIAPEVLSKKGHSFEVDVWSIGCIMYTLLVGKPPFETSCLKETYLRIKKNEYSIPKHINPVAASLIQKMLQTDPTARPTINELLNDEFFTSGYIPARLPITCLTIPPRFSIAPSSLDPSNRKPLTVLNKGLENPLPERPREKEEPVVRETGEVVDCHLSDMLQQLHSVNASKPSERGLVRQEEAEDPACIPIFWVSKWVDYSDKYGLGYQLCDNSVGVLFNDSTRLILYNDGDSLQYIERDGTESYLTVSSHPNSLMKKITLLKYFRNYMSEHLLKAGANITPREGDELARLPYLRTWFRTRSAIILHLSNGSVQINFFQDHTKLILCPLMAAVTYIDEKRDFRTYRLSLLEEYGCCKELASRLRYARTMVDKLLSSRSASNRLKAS
UniProt Q13131: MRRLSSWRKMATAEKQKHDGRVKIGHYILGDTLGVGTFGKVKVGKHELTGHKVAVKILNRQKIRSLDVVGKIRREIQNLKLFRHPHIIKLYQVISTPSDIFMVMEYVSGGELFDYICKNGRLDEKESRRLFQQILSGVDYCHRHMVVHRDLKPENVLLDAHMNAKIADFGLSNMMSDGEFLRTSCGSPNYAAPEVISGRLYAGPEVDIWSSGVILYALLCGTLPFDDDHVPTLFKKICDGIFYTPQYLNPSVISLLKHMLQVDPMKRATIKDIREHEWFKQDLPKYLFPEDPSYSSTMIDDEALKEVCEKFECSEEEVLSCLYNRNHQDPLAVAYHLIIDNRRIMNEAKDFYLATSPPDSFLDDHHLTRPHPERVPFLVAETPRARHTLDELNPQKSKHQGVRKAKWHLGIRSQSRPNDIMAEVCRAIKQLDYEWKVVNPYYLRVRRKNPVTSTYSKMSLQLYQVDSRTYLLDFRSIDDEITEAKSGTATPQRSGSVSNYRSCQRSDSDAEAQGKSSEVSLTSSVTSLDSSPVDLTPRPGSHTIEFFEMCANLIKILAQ
UniProt Q05397, whole entry, looked up: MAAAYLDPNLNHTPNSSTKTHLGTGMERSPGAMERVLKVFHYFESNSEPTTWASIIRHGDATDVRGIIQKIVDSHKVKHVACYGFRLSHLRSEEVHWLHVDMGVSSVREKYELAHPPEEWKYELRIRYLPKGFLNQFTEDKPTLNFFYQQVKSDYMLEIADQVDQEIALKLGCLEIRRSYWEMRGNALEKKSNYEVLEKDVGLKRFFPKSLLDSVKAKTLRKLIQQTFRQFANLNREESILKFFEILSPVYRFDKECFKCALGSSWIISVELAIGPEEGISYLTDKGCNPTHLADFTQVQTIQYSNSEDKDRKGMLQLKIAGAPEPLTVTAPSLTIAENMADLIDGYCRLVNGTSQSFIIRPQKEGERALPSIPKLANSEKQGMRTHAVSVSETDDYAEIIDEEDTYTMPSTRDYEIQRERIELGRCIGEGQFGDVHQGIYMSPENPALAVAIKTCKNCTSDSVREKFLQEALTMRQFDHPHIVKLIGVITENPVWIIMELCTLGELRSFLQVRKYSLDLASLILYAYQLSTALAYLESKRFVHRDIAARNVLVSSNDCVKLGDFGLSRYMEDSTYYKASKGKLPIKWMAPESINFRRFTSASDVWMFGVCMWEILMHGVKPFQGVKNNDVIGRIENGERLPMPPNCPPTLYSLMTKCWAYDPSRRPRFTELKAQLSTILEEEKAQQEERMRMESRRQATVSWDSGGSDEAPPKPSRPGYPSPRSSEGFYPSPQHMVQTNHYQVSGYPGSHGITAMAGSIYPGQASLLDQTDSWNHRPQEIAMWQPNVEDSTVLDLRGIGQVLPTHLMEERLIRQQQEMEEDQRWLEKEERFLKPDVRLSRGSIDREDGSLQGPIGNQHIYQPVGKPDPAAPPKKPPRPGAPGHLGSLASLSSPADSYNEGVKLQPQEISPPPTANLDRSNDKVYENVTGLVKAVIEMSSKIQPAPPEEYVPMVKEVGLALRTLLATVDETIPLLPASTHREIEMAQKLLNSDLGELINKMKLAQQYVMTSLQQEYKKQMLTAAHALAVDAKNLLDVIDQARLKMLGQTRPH

Key:
Assay in all cases: kinase-Nluc reporter destabilization hit call (1 = scored as downregulated) (binary); higher = compound decreases kinase abundance
Conditions in all cases: K562; 2-18 h
PDPK1 = PDPK1 (UniProt O15530)
PIK4CA = PIK4CA (UniProt P42356)
PIK4CB = PIK4CB (UniProt Q9UBF8)
PLK1 = PLK1 (UniProt P53350)
PRKAA1 = PRKAA1 (UniProt Q13131)
PRKCA = PRKCA (UniProt P17252)
PTK2 = PTK2 (UniProt Q05397)
PTK2B = PTK2B (UniProt Q14289)
RAF1 = RAF1 (UniProt P04049)
[1] = target: RAF1_S257L (clone: RAF1_mut) (UniProt P04049)

| Structure (SMILES) | kinase-Nluc reporter destabilization hit call (PDPK1) | kinase-Nluc reporter destabilization hit call (PIK4CA) | kinase-Nluc reporter destabilization hit call (PIK4CB) | kinase-Nluc reporter destabilization hit call (PLK1) | kinase-Nluc reporter destabilization hit call (PRKAA1) | kinase-Nluc reporter destabilization hit call (PRKCA) | kinase-Nluc reporter destabilization hit call (PTK2) | kinase-Nluc reporter destabilization hit call (PTK2B) | kinase-Nluc reporter destabilization hit call (RAF1) | kinase-Nluc reporter destabilization hit call [1] |
| --- | --- | --- | --- | --- | --- | --- | --- | --- | --- | --- |
| COc1cc2nc(NC3CC3)nc(NC3CCN(C(C)C)CC3)c2cc1OC (10 µM) | inactive: 0 | inactive: 0 | inactive: 0 | inactive: 0 | inactive: 0 | inactive: 0 | inactive: 0 | inactive: 0 | inactive: 0 | inactive: 0 |
| CC(C)(Oc1ccc(Cl)cc1)C(=O)Nc1ccc(OCc2ccc(C#N)cc2)cc1 [AMPK activator 4] (10 µM) | inactive: 0 | inactive: 0 | inactive: 0 | inactive: 0 | inactive: 0 | inactive: 0 | inactive: 0 | inactive: 0 | inactive: 0 | inactive: 0 |
| CN1C(=O)[C@@H](NC(=O)c2cc(Cc3ccccc3)on2)COc2ccccc21 (10 µM) | inactive: 0 | inactive: 0 | inactive: 0 | inactive: 0 | inactive: 0 | inactive: 0 | inactive: 0 | inactive: 0 | inactive: 0 | inactive: 0 |
| NCCNS(=O)(=O)c1ccc(Cl)c2ccncc12 [CKI-7 (free base)] (10 µM) | inactive: 0 | inactive: 0 | inactive: 0 | inactive: 0 | inactive: 0 | inactive: 0 | inactive: 0 | inactive: 0 | inactive: 0 | inactive: 0 |
| O=C(C#Cc1ccccc1)c1cccc([N+](=O)[O-])c1 (10 µM) | inactive: 0 | inactive: 0 | inactive: 0 | inactive: 0 | inactive: 0 | inactive: 0 | inactive: 0 | inactive: 0 | inactive: 0 | inactive: 0 |
| CCCS(=O)(=O)N[C@H]1C[C@@H](N(C)c2ncnc3[nH]ccc23)C1 [Abrocitinib] (10 µM) | inactive: 0 | inactive: 0 | inactive: 0 | inactive: 0 | inactive: 0 | inactive: 0 | inactive: 0 | inactive: 0 | inactive: 0 | inactive: 0 |
| COc1ccc2nc3ccc(OC)cc3c(SCCCN)c2c1 (10 µM) | inactive: 0 | inactive: 0 | inactive: 0 | inactive: 0 | inactive: 0 | inactive: 0 | inactive: 0 | inactive: 0 | inactive: 0 | active: 1 |
| Cc1ncc(-c2cc(F)c(O)c(F)c2)cc1-c1cc(F)c(O)c(F)c1 (10 µM) | inactive: 0 | inactive: 0 | inactive: 0 | inactive: 0 | inactive: 0 | inactive: 0 | inactive: 0 | inactive: 0 | inactive: 0 | inactive: 0 |
| C[C@@H](NC(=O)c1ncnc(N)c1Cl)c1ncc(C(=O)Nc2cc(C(F)(F)F)c(Cl)cn2)s1 (2.5 µM) | inactive: 0 | inactive: 0 | inactive: 0 | inactive: 0 | inactive: 0 | inactive: 0 | inactive: 0 | inactive: 0 | – | – |
| COc1cc2nccc(Nc3cccc(Oc4ccccc4)c3)c2cc1OC (2.5 µM) | inactive: 0 | inactive: 0 | inactive: 0 | inactive: 0 | inactive: 0 | inactive: 0 | inactive: 0 | inactive: 0 | inactive: 0 | inactive: 0 |
| O=C(NC[C@H](O)CO)c1ccncc1Nc1ccc(I)cc1F [Pimasertib] (10 µM) | inactive: 0 | inactive: 0 | inactive: 0 | inactive: 0 | inactive: 0 | inactive: 0 | inactive: 0 | inactive: 0 | inactive: 0 | inactive: 0 |
| Cc1ccc(C2CC(=O)NC(SCC(=O)Nc3nccs3)=C2C#N)cc1 (stereo not drawn) [Necrostatin-34] (10 µM) | inactive: 0 | inactive: 0 | inactive: 0 | inactive: 0 | inactive: 0 | inactive: 0 | inactive: 0 | inactive: 0 | inactive: 0 | inactive: 0 |
| CCc1c(C(=O)NNC(=O)[C@H](O)c2cc(F)cc(F)c2)ccc(O)c1C (10 µM) | inactive: 0 | inactive: 0 | inactive: 0 | inactive: 0 | inactive: 0 | inactive: 0 | inactive: 0 | inactive: 0 | inactive: 0 | inactive: 0 |
| Nc1[nH]nc2nnc(-c3c(-c4ccccc4)nn4ccccc34)cc12 (10 µM) | inactive: 0 | inactive: 0 | inactive: 0 | inactive: 0 | inactive: 0 | inactive: 0 | inactive: 0 | inactive: 0 | inactive: 0 | inactive: 0 |
| O=C(CCl)c1c[nH]c2ccccc12 (2.5 µM) | inactive: 0 | inactive: 0 | inactive: 0 | inactive: 0 | inactive: 0 | inactive: 0 | inactive: 0 | inactive: 0 | inactive: 0 | inactive: 0 |
| Cc1ncsc1-c1ccc(CNC(=O)[C@@H]2C[C@@H](O)CN2C(=O)[C@@H](NC(=O)COCCOc2ccc(-c3cc(Nc4ccc(OC(F)(F)F)cc4)ncn3)cc2)C(C)(C)C)cc1 (2.5 µM) | inactive: 0 | inactive: 0 | inactive: 0 | inactive: 0 | inactive: 0 | inactive: 0 | inactive: 0 | inactive: 0 | inactive: 0 | inactive: 0 |
| N=C(NC(=N)N1CCCC1)Nc1ccc(OC(F)(F)F)cc1 (10 µM) | inactive: 0 | inactive: 0 | inactive: 0 | inactive: 0 | inactive: 0 | inactive: 0 | inactive: 0 | inactive: 0 | inactive: 0 | inactive: 0 |
| COc1cc2nc(-c3cc(F)ccc3O)nc(N[C@@H]3CNC[C@H]3C(C)(C)O)c2cc1OC (2.5 µM) | inactive: 0 | inactive: 0 | inactive: 0 | inactive: 0 | inactive: 0 | inactive: 0 | inactive: 0 | inactive: 0 | inactive: 0 | inactive: 0 |
| S=C(NCc1ccc2c(c1)OCO2)N1CCN(c2ncnc3c2oc2ccccc23)CC1 [Amuvatinib] (2.5 µM) | inactive: 0 | inactive: 0 | inactive: 0 | inactive: 0 | inactive: 0 | inactive: 0 | inactive: 0 | inactive: 0 | inactive: 0 | inactive: 0 |
| Nc1nccc(Oc2ccc3c(C(=O)Nc4cccc(C(F)(F)F)c4)cccc3c2)n1 (10 µM) | inactive: 0 | inactive: 0 | inactive: 0 | inactive: 0 | inactive: 0 | inactive: 0 | inactive: 0 | inactive: 0 | inactive: 0 | inactive: 0 |
| Cc1cncc2cccc(S(=O)(=O)N3CCCNC[C@@H]3C)c12 [H-1152 (dihydrochloride)] (10 µM) | inactive: 0 | inactive: 0 | inactive: 0 | inactive: 0 | inactive: 0 | inactive: 0 | inactive: 0 | inactive: 0 | inactive: 0 | inactive: 0 |
| CCOc1cc(=O)[nH]cc1-c1ccc(CC(=O)Nc2cc(C(C)(C)C(F)(F)F)on2)c(F)c1 (10 µM) | inactive: 0 | inactive: 0 | inactive: 0 | inactive: 0 | inactive: 0 | inactive: 0 | inactive: 0 | inactive: 0 | inactive: 0 | inactive: 0 |
| CO[C@]1(C(=O)N[C@@H](C)c2ccc(-n3cc(F)cn3)nc2)CC[C@H](c2nc(C)cc(Nc3cc(C)[nH]n3)n2)CC1 [Pralsetinib] (10 µM) | inactive: 0 | inactive: 0 | inactive: 0 | inactive: 0 | inactive: 0 | inactive: 0 | inactive: 0 | inactive: 0 | inactive: 0 | inactive: 0 |
| Nc1ccc(-c2nc3ccc(-c4nc5ccc(N)cc5[nH]4)cc3[nH]2)cc1 (10 µM) | inactive: 0 | inactive: 0 | inactive: 0 | inactive: 0 | inactive: 0 | inactive: 0 | inactive: 0 | inactive: 0 | inactive: 0 | inactive: 0 |
| Fc1ccc(-c2nc3n(c2-c2ccncc2)CCS3)cc1 (10 µM) | inactive: 0 | inactive: 0 | inactive: 0 | inactive: 0 | inactive: 0 | inactive: 0 | inactive: 0 | inactive: 0 | inactive: 0 | inactive: 0 |
| COc1c(O)cc(O)c2c(=O)cc(-c3ccccc3)oc12 [Wogonin] (10 µM) | inactive: 0 | inactive: 0 | inactive: 0 | inactive: 0 | inactive: 0 | inactive: 0 | inactive: 0 | inactive: 0 | inactive: 0 | inactive: 0 |
| O=C1C=CC2=C3c4cc(O)c(O)cc4CC3(O)COC2=C1O (stereo not drawn) [Hematein] (10 µM) | inactive: 0 | inactive: 0 | inactive: 0 | inactive: 0 | inactive: 0 | inactive: 0 | inactive: 0 | inactive: 0 | inactive: 0 | inactive: 0 |
| O=C(NCc1ccn[nH]1)c1cc([C@@H]2CCNC[C@H]2COc2ccc3c(c2)OCO3)ccc1F [GRK2-IN-1 (hydrochloride)] (10 µM) | inactive: 0 | inactive: 0 | inactive: 0 | inactive: 0 | inactive: 0 | inactive: 0 | inactive: 0 | inactive: 0 | inactive: 0 | inactive: 0 |
| Cc1ccc(Nc2cc(N[C@@H]3CCCC[C@@H]3N)nnc2C(N)=O)nc1C (2 µM) | inactive: 0 | inactive: 0 | inactive: 0 | inactive: 0 | inactive: 0 | inactive: 0 | inactive: 0 | inactive: 0 | inactive: 0 | inactive: 0 |
| NC(=O)c1cnc(N[C@@H]2CCCC[C@@H]2N)nc1Nc1cccc(-n2nccn2)c1 (2.5 µM) | inactive: 0 | inactive: 0 | inactive: 0 | inactive: 0 | inactive: 0 | inactive: 0 | inactive: 0 | inactive: 0 | inactive: 0 | inactive: 0 |

Sorted by number of heavy atoms (ascending): part of the list above

| Structure (SMILES) | kinase-Nluc reporter destabilization hit call (PDPK1) | kinase-Nluc reporter destabilization hit call (PIK4CA) | kinase-Nluc reporter destabilization hit call (PIK4CB) | kinase-Nluc reporter destabilization hit call (PLK1) | kinase-Nluc reporter destabilization hit call (PRKAA1) | kinase-Nluc reporter destabilization hit call (PRKCA) | kinase-Nluc reporter destabilization hit call (PTK2) | kinase-Nluc reporter destabilization hit call (PTK2B) | kinase-Nluc reporter destabilization hit call (RAF1) | kinase-Nluc reporter destabilization hit call [1] |
| --- | --- | --- | --- | --- | --- | --- | --- | --- | --- | --- |
| CCc1c(C(=O)NNC(=O)[C@H](O)c2cc(F)cc(F)c2)ccc(O)c1C (10 µM) | inactive: 0 | inactive: 0 | inactive: 0 | inactive: 0 | inactive: 0 | inactive: 0 | inactive: 0 | inactive: 0 | inactive: 0 | inactive: 0 |
| CC(C)(Oc1ccc(Cl)cc1)C(=O)Nc1ccc(OCc2ccc(C#N)cc2)cc1 [AMPK activator 4] (10 µM) | inactive: 0 | inactive: 0 | inactive: 0 | inactive: 0 | inactive: 0 | inactive: 0 | inactive: 0 | inactive: 0 | inactive: 0 | inactive: 0 |
| Nc1nccc(Oc2ccc3c(C(=O)Nc4cccc(C(F)(F)F)c4)cccc3c2)n1 (10 µM) | inactive: 0 | inactive: 0 | inactive: 0 | inactive: 0 | inactive: 0 | inactive: 0 | inactive: 0 | inactive: 0 | inactive: 0 | inactive: 0 |
